Laboratory results taken from PubChem BioAssay AID504467 (National Center for Advancing Translational Sciences (NCATS), 2011).
Screen size: about 330,000 compounds; about 7,700 (2.3%) were called active. Inconclusive means that the source gave no clear call. Such entries were picked first, then a sample of the others. Calls come from the whole dose curve; as a rule, active = well fitted inhibition curve with a large enough effect; inconclusive = small, poorly fitted or top-dose-only effect, or effect the other way; inactive = flat fitted curve, though single readings scatter. Where the call is inconclusive, the potency comes from a doubtful curve fit.

Experiment: qHTS screen for small molecules that inhibit ELG1-dependent DNA repair in human embryonic kidney (HEK293T) cells expressing luciferase-tagged ELG1; note: nearly all actives have a fitted effect of over 55% in size
Settings: HEK293T ELG1-luciferase reporter, luminescence, 16 h, DNA damage induced by 5-fluorouridine; activity change, negative = inhibition: at 46.1 µM (top of the series)
Description: NIH Molecular Libraries Probe Production Network [MLPCN] NIH Chemical Genomics Center [NCGC] MLPCN Grant: 1 R03 MH092164-01 Assay Provider: Kyungjae Myung, NHGRI, NIH Keywords: MLPCN, qHTS, NCGC, genotoxicity, cancer Assay Overview: Cancer cells divide rapidly compared to normal cells in the body. During cell division, cancer cells need to duplicate their genome by DNA replication. The failure of genome duplication leads to cancer cells' death. Therefore, inhibitors of DNA replication could specifically kill cancer cells. Based on this concept, many chemotherapeutic agents were developed and have been used to treat cancer patients. However, there are a limited number of agents available in the clinical setting, and some of those that do exist have low efficacy and severe side effects. Therefore, if we can find the compounds that effectively block DNA replication either by directly damaging DNA or by inhibiting other cellular mechanisms, the options for cancer treatment will be broadened. With this in mind, we developed a quantitative high-throughput ELG1-luciferase reporter gene assay. Small molecules that specifically block ELG1 function in response to DNA damage can be identified by monitoring the suppression of luciferase activity. Since ELG1 defines a pathway for repairing DNA damage, agents blocking ELG1 function can be used to sensitize cancer cells to chemotherapeutic agents whose mechanism of action involves the induction of DNA damage.
Assay Protocol Summary: For genotoxicity screening, 2,000 cells in 4 uL/well were dispensed into white, solid-bottom 1536-well plates using a solenoid-based dispenser. Following transfer of 1 uL 5-Fluorouridine and 23 nL compound or DMSO vehicle by a pin tool, the plates were incubated 16 hr at 37 °C and 5% CO2. 5 ul ONE-Glo (Promega) was then added to each plate and following a 30 min incubation at room temperature, luciferase activity was quantified on a ViewLux CCD-based plate reader.
% is set by controls: 0 for no effect and ±100 for the full control effect; potency is the fitted concentration of half-maximal effect.

SMILES	Potency	activity change, negative = inhibition
C#CCOCCOCCOCCNc1nc(N2CCOCC2)nc(N2CCN(C(=O)[C@H]([C@@H](C)CC)n3cc([C@@H](N)CO)nn3)CC2)n1	inconclusive: 25.9 µM [activator, partial curve, poor fit]	
Cc1ccc(/C=N/N2CCOCC2)s1	inconclusive: 18.3 µM [activator, partial curve]	
CS(=O)Cc1cc(Sc2ccccc2)nc(-c2cccnc2)n1 (centres undefined)		inactive: -10.8%
CC(C)(C)C(=O)Nc1cc2c3c(c1)CCN3C(=O)CC2	inconclusive: 11.6 µM [activator, partial curve]	
Nn1c(SCC(=O)Nc2ccc(F)cc2F)nnc1-c1cccnc1	inconclusive: 25.9 µM [activator, single point]	
FC(F)C(F)(F)c1cc(-c2ccc(Cl)cc2)n[nH]1	inconclusive: 18.3 µM [inhibitor, single point]	
CC(C)N(C(=O)CSc1nc(COc2ccccc2)nc2ccccc12)C(C)C	inconclusive: 20.6 µM [inhibitor, single point]	
Nc1nnc(SCC(=O)c2ccc3c(c2)NC(=O)CO3)s1		inactive: 9.55%
CC1C2CC(C/C2=N/NC(=O)c2cccs2)C1(C)C (centres undefined)	inconclusive: 14.6 µM [inhibitor, single point]	
O=C(c1cc2cc(Br)ccc2o1)N1CCCCC1	inconclusive: 13 µM [activator, partial curve]	
COc1cc(-c2nnc(SCC(=O)N3c4ccccc4Sc4ccccc43)o2)cc(OC)c1OC	active: 7.31 µM	
COc1cc(S(=O)(=O)N2CCn3cccc3C2C)ccc1NC(C)=O (centres undefined)		inactive: 29.4%
CCCCCCN1C=CC(=C/C=C(\C#N)C(=O)OCC)C=C1		inactive: -1.87%
C=CCc1c(C)nc(SC)nc1Nc1ccccc1	inconclusive: 25.9 µM [inhibitor, single point]	
COc1cccc(NC(=O)c2ccccc2F)c1	inconclusive: 8.2 µM [activator, partial curve]	
CSCc1ccc(C(=O)Nc2ccc(C(N)=O)cc2)cc1	inconclusive: 18.3 µM [activator, partial curve]	
O=C(CN1CCN(S(=O)(=O)c2ccc(F)cc2)CC1)Nc1ccc(Cl)c(C(F)(F)F)c1	inconclusive: 0.562 µM [inhibitor, full curve, poor fit]	
CC(O)c1cc2c(s1)c1cnn(Cc3ccccc3F)c(=O)c1n2C (centres undefined)		inactive: 15.8%
O=C(N/N=C1\CC2CC=CC12)c1ccc(Br)cc1 (centres undefined)		inactive: 0.183%
CC(C)C(NC(=O)CCNC(=O)c1ccc([N+](=O)[O-])cc1)c1nc2ccccc2[nH]1 (centres undefined)		inactive: 1.71%
CC1=C(C(=O)OCC(C)C)C(c2ccc(Br)s2)NC(=O)N1 (centres undefined)		inactive: -6.32%
COc1ccc(C(c2c(C)[nH]n(C(N)=S)c2=O)C(C#N)C#N)cc1 (centres undefined)	inconclusive: 29.1 µM [activator, single point]	
C=CCC[C@@H](Cc1ccc(F)cc1)C(=O)OC[C@H](Cc1c[nH]c2ccccc12)NC(=O)[C@H](CC=C)CC(=O)N(CCO)Cc1ccccc1	active: 18.3 µM	
CN(CC(=O)Nc1ccc(Cl)c(C(F)(F)F)c1)CC(=O)NC1CCCCC1		inactive: -16.2%
O=C(c1cc(S(=O)(=O)N2CCCCC2)ccc1Cl)N1CCOCC1		inactive: 11.1%

SMILES	Potency	activity change, negative = inhibition
CSC(C(=O)c1cc2ccccc2o1)c1ccccc1 (centres undefined)	inconclusive: 22.4 µM [activator, single point]	
COc1ccc(OC(C)C(=O)N2CCCc3ccccc32)cc1 (centres undefined)	inconclusive: 23.1 µM [activator, partial curve, poor fit]	
CNc1nc(-c2c[nH]c3ccccc23)cs1		inactive: 23.8%
CCOC(=O)/C(C#N)=C1\C(=O)N(Cc2ccccc2)c2ccccc21	inconclusive: 29.1 µM [inhibitor, single point]	
COc1ccc(/C=C/C(=O)OCCNC(=O)c2ccncc2)cc1OC		inactive: 2.1%
CNc1nnc(SCC(=O)c2c(N)n(C3CC3)c(=O)[nH]c2=O)s1		inactive: 11.8%
COCCn1ccc(O)c(Cc2ccccc2)c1=O	inconclusive: 6.51 µM [inhibitor, single point]	
Cn1c(NC(=O)/C=C/c2ccco2)cc(=O)n(C)c1=O	inconclusive: 11.6 µM [activator, partial curve]	
Cc1c(CCC(=O)O)c(=O)oc2c(C)c(OCc3cc4c(cc3Cl)OCO4)ccc12		inactive: 0.97%
CCc1nnc(NC(=O)CCC(=O)N2CCN(CCc3ccccc3)CC2)s1		inactive: -0.399%
COc1ccc2c(C#N)c3ccccn3c2c1	inconclusive: 20.6 µM [inhibitor, single point]	
COc1ccc2no[n+]([O-])c2c1	inconclusive: 29.1 µM [activator, single point]	
N#C/C(=C\c1ccccc1)C(=O)NCc1ccc(F)cc1		inactive: 17.3%
O=C(CSc1ccccn1)N/N=C/c1c[nH]c2ccccc12	inconclusive: 29.1 µM [inhibitor, single point]	
COc1ccc(NC(=O)c2cc3c(=O)n(C)c4ccccc4c3s2)cc1OC	inconclusive: 5.17 µM [activator, partial curve, poor fit]	
O=[N+]([O-])c1cc([N+](=O)[O-])c(N2CCOCC2)cc1NCc1ccccc1		inactive: -6.9%
CC12CN3CCN(CC(C3)/C1=N\NC(=O)Nc1cccc(Cl)c1)C2	inconclusive: 16.4 µM [activator, partial curve]	
COc1ccc(-c2[nH]c(-c3ccc4c(c3)OCO4)nc2-c2ccccc2)cc1	inconclusive: 29.1 µM [inhibitor, single point]	
O=C(CN1C(=O)S/C(=C\c2ccccc2Cl)C1=O)NCCCn1ccnc1	inconclusive: 18.3 µM [activator, single point]	
O=C(N/N=C/c1cccc2nccnc12)c1ccncc1		inactive: 2.88%
Cc1ccc(C(=O)OCC(=O)Nc2ccccc2Cl)c(O)c1	inconclusive: 18.3 µM [activator, single point]	
COc1ccc(OC)c(Nc2c3c(nc4ccccc24)CCC3)c1	inconclusive: 25.9 µM [inhibitor, partial curve, poor fit]	
Cc1nc(SCC(=O)N2CCCCCC2)[nH]c(=O)c1C	inconclusive: 29.1 µM [activator, single point]	
CCCCc1ccc(NC(=O)Nc2cnccn2)cc1	inconclusive: 8.2 µM [activator, partial curve, poor fit]	
COCCCN1CN(Cc2ccccc2)CNC1=S		inactive: 0.51%

Three neighbouring entries from above:
SMILES	Potency	activity change, negative = inhibition
O=C(CN1C(=O)S/C(=C\c2ccccc2Cl)C1=O)NCCCn1ccnc1	inconclusive: 18.3 µM [activator, single point]	
O=C(N/N=C/c1cccc2nccnc12)c1ccncc1		inactive: 2.88%
Cc1ccc(C(=O)OCC(=O)Nc2ccccc2Cl)c(O)c1	inconclusive: 18.3 µM [activator, single point]	

Quoted at random: three compounds from above.
SMILES	Potency	activity change, negative = inhibition
COc1ccc2no[n+]([O-])c2c1	inconclusive: 29.1 µM [activator, single point]	
CNc1nnc(SCC(=O)c2c(N)n(C3CC3)c(=O)[nH]c2=O)s1		inactive: 11.8%
CNc1nc(-c2c[nH]c3ccccc23)cs1		inactive: 23.8%

(cont.)

SMILES	Potency	activity change, negative = inhibition
COc1ccc(NC(=O)CSc2nc3nc(-c4cccs4)cc(C(F)(F)F)c3c(=O)[nH]2)c(OC)c1		inactive: 0.923%
COc1cc(OC)c(CN2CCN(c3ccc(F)cc3)CC2)cc1Br		inactive: -1.84%
Nn1c(SCC(=O)Nc2nccs2)nnc1C1CC1		inactive: 0.837%
Cc1ccc(C(=O)C2=C(O)C(=O)N(c3ncccn3)C2c2ccc(F)cc2)o1 (centres undefined)	inconclusive: 25.9 µM [activator, single point]	
CC[C@]12c3[nH]c4cc(-c5ccco5)ccc4c3CCN1C(=O)[C@@H](CC(=O)NCc1cccc(C(F)(F)F)c1)C[C@@H]2C(=O)N1CCN(C(=O)C2CC2)CC1	inconclusive: 16.4 µM [inhibitor, partial curve]	
COc1ccc(N2CC(C(=O)N[C@@H](C)C(=O)NC3CCCC3)CC2=O)cc1 (some centres undefined)	inconclusive: 7.3 µM [activator, partial curve, poor fit]	
CC(=O)Nc1ccc2c(c1)nc1n2CCN(C(C)c2ccccc2)C1 (centres undefined)	inconclusive: 29.1 µM [activator, single point]	
Cc1ccc(C(=O)O)cc1S(=O)(=O)N1CCC(C(=O)O)CC1		inactive: -2.44%
C=CCN1C(=O)/C(=C2/Sc3ccc(OC)cc3N2C)SC1=Nc1ccccc1		inactive: 8.05%
COc1ccc2c(C)cc(SCC(=O)Nc3cc(C(N)=O)cc(C(N)=O)c3)nc2c1	inconclusive: 6.51 µM [inhibitor, partial curve]	
C[C@H]1CN=C(N(C)C)N1CCc1ccc(F)cc1		inactive: 4.7%
O=c1[nH]c(/C=C/c2cccc3ccccc23)nc2ccccc12	inconclusive: 20.6 µM [activator, partial curve]	
CCOC(=O)c1sc2nc(C)n(N)c(=O)c2c1C	inconclusive: 18.3 µM [activator, partial curve, poor fit]	
c1ccc(NC2=NCCN2CC2CCCCCC2)cc1		inactive: 11.5%
CCOC(=O)N1CCC(NC(=O)c2ccc(CS(=O)c3cccc(C)c3)o2)CC1 (centres undefined)		inactive: -7.74%
O=C(C1CCN(S(=O)(=O)c2cccs2)CC1)N1CCN(Cc2ccccc2)CC1		inactive: -10.7%
CCN(CC)CCCNC(=S)N(Cc1cccnc1)Cc1cc2cc(C)cc(C)c2[nH]c1=O	inconclusive: 20.6 µM [inhibitor, partial curve, poor fit]	
COC(C(=O)NC1CCCCCCC1)c1ccccc1 (centres undefined)		inactive: 0.949%
NS(=O)(=O)c1ccc(NC(=O)CSc2nc3c(cnn3-c3ccccn3)c(=O)[nH]2)cc1		inactive: 9.04%
O=C1CN(C(=O)COC(=O)c2oc3ccccc3c2COc2ccccc2)c2ccccc2N1	inconclusive: 23.1 µM [inhibitor, partial curve]	
C=CCn1c(=NC(=O)c2cccc(N3C(=O)CCC3=O)c2)sc2cccc(OC)c21	inconclusive: 29.1 µM [inhibitor, single point]	
COc1ccc(S(=O)(=O)N2CCc3ccccc32)cc1C(=O)Nc1ccc(NC(C)=O)cc1		inactive: -1.16%
C/C(=N\Nc1nc2c(s1)CCCC2)c1ccc(Cl)cc1	inconclusive: 18.4 µM [activator, single point]	
CC(C)c1ccc(N(CC(=O)NCCSC(C)(C)C)S(C)(=O)=O)cc1	inconclusive: 16.4 µM [activator, partial curve]	
